Experimental data published in article doi:10.1101/2021.02.12.430872.
Results are given in words; binding and its absence hold for the method and conditions named. In cells and extracts the contact can be indirect. Some entries that bind do so weakly or less than the wild type. Each block holds one molecule with its values, some of them ahead of it.

Amino acid sequences for entries named in this document (tags omitted).
UniProt O43166: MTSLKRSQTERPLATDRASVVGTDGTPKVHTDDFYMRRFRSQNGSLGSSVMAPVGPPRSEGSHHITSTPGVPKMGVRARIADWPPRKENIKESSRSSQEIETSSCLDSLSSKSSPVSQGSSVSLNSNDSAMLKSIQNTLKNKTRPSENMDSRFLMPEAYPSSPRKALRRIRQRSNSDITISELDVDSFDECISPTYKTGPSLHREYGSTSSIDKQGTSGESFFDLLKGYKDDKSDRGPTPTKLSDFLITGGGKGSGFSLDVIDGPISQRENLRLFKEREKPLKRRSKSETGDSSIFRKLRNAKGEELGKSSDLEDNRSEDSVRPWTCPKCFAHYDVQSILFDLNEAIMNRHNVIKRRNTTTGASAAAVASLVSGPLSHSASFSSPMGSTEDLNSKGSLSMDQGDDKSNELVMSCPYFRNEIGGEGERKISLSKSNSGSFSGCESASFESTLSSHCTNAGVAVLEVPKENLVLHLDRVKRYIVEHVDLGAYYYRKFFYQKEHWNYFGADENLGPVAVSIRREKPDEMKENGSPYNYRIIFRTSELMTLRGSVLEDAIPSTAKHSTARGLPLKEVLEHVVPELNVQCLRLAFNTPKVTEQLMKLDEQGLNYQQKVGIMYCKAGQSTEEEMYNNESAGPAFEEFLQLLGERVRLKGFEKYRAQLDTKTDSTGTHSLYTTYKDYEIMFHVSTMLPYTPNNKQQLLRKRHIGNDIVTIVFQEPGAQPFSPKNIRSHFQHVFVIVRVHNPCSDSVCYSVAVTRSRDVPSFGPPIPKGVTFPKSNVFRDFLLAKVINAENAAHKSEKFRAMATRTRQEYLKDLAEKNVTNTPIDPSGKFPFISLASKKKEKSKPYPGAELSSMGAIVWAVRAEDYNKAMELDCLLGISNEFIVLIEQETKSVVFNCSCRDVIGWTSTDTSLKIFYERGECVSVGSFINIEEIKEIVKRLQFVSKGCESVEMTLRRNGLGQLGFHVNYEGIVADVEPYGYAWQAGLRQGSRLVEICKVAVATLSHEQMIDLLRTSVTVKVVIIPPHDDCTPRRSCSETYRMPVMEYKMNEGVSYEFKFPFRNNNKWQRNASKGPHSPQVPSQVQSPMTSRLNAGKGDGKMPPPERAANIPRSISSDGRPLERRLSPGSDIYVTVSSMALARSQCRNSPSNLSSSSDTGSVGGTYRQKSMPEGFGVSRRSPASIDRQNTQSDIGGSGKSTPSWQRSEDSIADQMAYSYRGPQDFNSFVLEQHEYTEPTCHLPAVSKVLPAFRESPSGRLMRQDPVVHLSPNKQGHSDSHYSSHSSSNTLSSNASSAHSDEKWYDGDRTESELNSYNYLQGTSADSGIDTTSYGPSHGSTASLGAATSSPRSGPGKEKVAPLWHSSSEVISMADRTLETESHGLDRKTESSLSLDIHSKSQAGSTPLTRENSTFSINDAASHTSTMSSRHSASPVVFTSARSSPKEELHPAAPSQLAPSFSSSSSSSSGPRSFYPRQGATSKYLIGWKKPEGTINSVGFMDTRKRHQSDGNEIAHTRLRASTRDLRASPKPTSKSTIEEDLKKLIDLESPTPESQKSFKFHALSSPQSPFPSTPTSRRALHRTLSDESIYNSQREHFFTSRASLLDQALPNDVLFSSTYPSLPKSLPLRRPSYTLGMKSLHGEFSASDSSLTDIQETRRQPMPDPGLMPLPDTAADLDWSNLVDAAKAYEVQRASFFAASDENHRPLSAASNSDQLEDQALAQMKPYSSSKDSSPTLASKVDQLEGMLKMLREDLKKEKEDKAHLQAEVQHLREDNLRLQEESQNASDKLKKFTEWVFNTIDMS
UniProt Q96SB3: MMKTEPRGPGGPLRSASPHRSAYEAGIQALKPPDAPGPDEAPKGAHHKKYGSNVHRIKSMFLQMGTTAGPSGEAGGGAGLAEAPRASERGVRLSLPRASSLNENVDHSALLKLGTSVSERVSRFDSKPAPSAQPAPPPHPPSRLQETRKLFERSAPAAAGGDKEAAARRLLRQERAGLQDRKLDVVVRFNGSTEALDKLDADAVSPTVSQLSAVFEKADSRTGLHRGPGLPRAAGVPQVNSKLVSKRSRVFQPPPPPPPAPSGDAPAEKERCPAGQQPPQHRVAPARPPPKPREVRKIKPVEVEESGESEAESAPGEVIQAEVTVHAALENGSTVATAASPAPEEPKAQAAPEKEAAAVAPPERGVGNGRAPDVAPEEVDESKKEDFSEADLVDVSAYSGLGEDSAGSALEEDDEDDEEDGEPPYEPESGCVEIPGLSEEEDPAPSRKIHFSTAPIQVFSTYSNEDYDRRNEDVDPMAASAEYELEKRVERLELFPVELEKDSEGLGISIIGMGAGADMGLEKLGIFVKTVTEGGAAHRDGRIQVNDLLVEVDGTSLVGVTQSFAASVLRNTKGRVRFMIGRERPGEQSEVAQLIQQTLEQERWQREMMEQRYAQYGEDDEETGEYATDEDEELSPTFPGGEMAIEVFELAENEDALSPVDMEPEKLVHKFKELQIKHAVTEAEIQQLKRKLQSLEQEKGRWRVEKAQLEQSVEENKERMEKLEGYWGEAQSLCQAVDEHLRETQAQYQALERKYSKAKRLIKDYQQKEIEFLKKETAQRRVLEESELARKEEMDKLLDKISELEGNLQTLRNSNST
UniProt Q7TPR4: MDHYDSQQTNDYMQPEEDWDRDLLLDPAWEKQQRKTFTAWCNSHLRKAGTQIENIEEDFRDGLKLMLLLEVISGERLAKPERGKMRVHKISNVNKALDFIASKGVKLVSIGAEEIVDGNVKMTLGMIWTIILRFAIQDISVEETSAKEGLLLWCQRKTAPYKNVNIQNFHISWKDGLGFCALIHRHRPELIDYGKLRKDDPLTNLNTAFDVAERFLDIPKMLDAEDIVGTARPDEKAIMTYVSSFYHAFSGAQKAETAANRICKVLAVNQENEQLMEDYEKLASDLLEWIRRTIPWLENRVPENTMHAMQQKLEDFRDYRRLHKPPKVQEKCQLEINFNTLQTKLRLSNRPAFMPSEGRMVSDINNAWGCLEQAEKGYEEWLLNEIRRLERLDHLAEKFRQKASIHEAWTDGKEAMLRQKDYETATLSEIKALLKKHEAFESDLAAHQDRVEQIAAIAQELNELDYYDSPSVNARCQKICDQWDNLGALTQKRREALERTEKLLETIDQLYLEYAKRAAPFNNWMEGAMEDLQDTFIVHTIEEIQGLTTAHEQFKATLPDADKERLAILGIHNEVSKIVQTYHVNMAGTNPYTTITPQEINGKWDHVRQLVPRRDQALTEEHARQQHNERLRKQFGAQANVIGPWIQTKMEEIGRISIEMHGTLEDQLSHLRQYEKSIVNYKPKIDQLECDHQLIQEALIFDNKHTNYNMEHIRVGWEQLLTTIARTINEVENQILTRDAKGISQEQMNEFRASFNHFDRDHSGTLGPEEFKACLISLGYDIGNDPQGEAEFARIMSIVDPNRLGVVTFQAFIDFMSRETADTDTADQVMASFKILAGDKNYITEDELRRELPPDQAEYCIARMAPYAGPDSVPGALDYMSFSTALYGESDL
UniProt Q6R891: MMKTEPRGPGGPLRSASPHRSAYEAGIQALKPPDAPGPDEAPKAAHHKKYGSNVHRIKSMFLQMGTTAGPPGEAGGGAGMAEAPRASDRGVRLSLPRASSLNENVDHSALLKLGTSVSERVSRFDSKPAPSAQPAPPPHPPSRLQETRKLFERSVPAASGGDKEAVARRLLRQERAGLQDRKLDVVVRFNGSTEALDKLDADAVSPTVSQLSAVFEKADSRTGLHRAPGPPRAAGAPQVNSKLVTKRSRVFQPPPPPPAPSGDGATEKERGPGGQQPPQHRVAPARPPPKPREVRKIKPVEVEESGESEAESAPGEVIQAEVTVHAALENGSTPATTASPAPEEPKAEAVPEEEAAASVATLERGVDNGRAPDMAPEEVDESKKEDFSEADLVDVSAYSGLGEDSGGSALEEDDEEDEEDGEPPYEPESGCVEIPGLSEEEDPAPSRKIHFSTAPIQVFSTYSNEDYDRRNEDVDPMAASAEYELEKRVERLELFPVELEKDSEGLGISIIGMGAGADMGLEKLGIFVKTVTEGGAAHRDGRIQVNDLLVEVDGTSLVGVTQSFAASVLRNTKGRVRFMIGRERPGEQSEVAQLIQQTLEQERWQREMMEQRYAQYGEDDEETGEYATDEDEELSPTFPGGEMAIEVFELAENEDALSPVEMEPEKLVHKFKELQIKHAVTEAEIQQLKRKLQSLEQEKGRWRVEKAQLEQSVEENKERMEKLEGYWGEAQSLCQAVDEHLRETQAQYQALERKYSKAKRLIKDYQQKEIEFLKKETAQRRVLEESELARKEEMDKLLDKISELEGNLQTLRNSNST
UniProt A2AHG0: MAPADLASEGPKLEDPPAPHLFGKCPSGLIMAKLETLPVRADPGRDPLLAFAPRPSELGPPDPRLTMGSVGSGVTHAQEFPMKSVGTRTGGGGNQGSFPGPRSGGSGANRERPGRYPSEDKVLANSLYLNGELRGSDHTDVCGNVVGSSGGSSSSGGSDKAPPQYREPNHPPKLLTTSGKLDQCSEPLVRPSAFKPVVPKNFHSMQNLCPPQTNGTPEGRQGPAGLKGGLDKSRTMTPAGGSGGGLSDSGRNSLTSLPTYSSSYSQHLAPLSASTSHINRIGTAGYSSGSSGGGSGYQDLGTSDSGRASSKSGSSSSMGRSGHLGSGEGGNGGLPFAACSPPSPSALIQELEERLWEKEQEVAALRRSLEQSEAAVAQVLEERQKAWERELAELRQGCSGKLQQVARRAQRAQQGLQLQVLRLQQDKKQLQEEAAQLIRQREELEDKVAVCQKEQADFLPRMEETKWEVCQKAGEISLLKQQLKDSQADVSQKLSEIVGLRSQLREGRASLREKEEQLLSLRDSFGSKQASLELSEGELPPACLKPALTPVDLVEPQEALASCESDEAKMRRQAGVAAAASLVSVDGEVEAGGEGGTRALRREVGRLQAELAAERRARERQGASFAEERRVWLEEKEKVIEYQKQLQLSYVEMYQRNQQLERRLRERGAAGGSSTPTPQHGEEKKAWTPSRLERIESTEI

Legend:
Assay in all cases: co-IP
[1] = molecular target: Myc-tagged SIPA1L1 (human) (UniProt O43166)
[2] = molecular target: Signal-induced proliferation-associated 1 (SIPA1)-like 1 (SIPA1L1) (mouse (endogenous in brain)) (UniProt Q8C0T5)
[3] = molecular target: T1, Signal-induced proliferation-associated 1 (SIPA1)-like 1 (SIPA1L1) (mouse (endogenous in brain)), Q8C0T5; settings: remark: other sources report otherwise
T1 chain: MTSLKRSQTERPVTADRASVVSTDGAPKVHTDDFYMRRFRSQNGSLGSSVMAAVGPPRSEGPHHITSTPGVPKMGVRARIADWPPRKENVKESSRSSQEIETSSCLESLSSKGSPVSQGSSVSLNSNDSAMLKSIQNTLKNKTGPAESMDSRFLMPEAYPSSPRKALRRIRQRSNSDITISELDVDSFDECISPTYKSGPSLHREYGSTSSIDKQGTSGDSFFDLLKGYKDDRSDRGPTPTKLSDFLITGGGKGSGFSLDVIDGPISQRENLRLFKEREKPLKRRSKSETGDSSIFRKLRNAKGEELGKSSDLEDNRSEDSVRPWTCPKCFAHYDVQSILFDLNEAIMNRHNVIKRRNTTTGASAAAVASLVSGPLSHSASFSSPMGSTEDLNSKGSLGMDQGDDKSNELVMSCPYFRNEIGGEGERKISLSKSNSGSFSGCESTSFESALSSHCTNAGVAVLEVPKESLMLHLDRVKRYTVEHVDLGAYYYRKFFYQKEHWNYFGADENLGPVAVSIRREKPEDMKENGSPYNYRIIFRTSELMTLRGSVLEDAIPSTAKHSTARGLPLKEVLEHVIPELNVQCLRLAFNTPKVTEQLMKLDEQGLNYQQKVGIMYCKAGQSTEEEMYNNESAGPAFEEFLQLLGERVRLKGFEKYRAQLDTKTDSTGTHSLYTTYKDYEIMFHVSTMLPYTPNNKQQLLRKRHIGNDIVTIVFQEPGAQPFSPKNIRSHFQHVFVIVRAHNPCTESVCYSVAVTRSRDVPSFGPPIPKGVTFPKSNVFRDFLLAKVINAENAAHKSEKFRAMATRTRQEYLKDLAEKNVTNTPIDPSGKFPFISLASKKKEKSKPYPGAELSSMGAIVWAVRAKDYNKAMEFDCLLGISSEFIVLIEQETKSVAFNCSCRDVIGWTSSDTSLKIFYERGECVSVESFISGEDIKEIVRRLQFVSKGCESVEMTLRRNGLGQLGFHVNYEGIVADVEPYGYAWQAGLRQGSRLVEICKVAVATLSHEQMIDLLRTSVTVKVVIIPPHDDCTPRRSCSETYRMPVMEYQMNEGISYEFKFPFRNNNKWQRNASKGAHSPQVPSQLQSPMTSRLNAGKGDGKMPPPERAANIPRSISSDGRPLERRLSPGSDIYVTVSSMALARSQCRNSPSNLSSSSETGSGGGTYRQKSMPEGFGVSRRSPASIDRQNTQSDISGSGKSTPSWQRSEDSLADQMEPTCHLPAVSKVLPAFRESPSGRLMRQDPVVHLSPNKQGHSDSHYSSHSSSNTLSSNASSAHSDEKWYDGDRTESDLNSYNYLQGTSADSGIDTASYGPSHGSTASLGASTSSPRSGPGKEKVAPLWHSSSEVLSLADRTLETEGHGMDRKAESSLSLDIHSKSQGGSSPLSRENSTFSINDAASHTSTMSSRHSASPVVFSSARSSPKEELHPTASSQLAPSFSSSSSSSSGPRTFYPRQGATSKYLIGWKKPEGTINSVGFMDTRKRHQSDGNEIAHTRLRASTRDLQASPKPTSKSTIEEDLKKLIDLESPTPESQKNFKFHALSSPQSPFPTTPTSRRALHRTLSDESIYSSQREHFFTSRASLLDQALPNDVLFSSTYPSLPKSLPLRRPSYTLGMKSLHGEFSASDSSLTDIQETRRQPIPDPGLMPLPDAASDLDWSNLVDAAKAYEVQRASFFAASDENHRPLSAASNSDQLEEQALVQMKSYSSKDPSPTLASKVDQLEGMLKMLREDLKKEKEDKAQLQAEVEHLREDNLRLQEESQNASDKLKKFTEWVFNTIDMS

binding [1]: binds
Molecule: FLAG-tagged spinophilin (from UniProt Q96SB3 1-817)

binding [2]: binds
Molecule: α-actinin-1 (from UniProt Q7TPR4 1-892)

binding [2]: binds
Molecule: spinophilin (neurabin-2/PP1R9B) (from UniProt Q6R891 1-817)

binding [2]: binds
Molecule: LZTS3/Pro-SAPiP1 (from UniProt A2AHG0 1-700)

binding [2]: binds
B1: LZTS1/PSD-Zip70 (protein, UniProt P60853 1-599)
chain: MGSVSSLISGHSFHSKHCRASQYKLRKSSHLKKLNRYSDGLLRFGFSQDSGRGKSSSKMGKSEDFFYIKVSQKARGSHRPDYTALSSGDIGGQTGVDFDPATPPKLMPFSNQLEMSSDKGAVRPTAFKPVLPRSGAILHSSPESTSHQLHPMPPDKPKEQELKPGLCSGALSDSGRNSMSSLPTHSTTSSYQLDPLVTPVGPTSRFGGSAHNITQGIILQDSNMMSLKALSFSDGGSKLAHPGKADKGASCVRSPLSTDECTIQELEQKLLQRETALQKLQRSFDEKEFASGQTFEERPRRTRDELECLEPKSKLKPPSQKSQRTQQVLQLQVLQLQQEKRQLRQELESLMKEQDLLETKLRSYEREKTNFAPALEETQWEVCQKSGEISLLKQQLKESQLEVNTKASEILSLKAQLKDTRGKLDGMELKTQDLESALRTKGLELEVCENELQRKKNEAELLREKVNLLEQELMELRAQAALHPAPLGPPGVGLTFSEDIPALQRELDRLRAELKEERQGHDQMSSGFQHERLVWKEEKEKVIQYQRQLQQSYLAMYQRNQRLEKALQQLARGDGPGEPFEIDLEGADIPYEDIIATEI

binding [3]: no binding
B2: neuroligin-1, Q99K10 46-843 (protein)
chain: QKLDDVDPLVTTNFGKIRGIKKELNNEILGPVIQFLGVPYAAPPTGEHRFQPPEPPSPWSDIRNATQFAPVCPQNIIDGRLPEVMLPVWFTNNLDVVSSYVQDQSEDCLYLNIYVPTEDGPLTKKHTDDLGDNDGAEDEDIRDSGGPKPVMVYIHGGSYMEGTGNLYDGSVLASYGNVIVITVNYRLGVLGFLSTGDQAAKGNYGLLDLIQALRWTSENIGFFGGDPLRITVFGSGAGGSCVNLLTLSHYSEGNRWSNSTKGLFQRAIAQSGTALSSWAVSFQPAKYARILATKVGCNVSDTVELVECLQKKPYKELVDQDVQPARYHIAFGPVIDGDVIPDDPQILMEQGEFLNYDIMLGVNQGEGLKFVENIVDSDDGVSASDFDFAVSNFVDNLYGYPEGKDVLRETIKFMYTDWADRHNPETRRKTLLALFTDHQWVAPAVATADLHSNFGSPTYFYAFYHHCQTDQVPAWADAAHGDEVPYVLGIPMIGPTELFPCNFSKNDVMLSAVVMTYWTNFAKTGDPNQPVPQDTKFIHTKPNRFEEVAWTRYSQKDQLYLHIGLKPRVKEHYRANKVNLWLELVPHLHNLNDISQYTSTTTKVPSTDITLRPTRKNSTPVTSAFPTAKQDDPKQQPSPFSVDQRDYSTELSVTIAVGASLLFLNILAFAALYYKKDKRRHDVHRRCSPQRTTTNDLTHAPEEEIMSLQMKHTDLDHECESIHPHEVVLRTACPPDYTLAMRRSPDDIPLMTPNTITMIPNTIPGIQPLHTFNTFTGGQNNTLPHPHPHPHSHSTTRV

binding [2]: binds
B3: drebrin (protein, UniProt Q9QXS6 1-706)
chain: MAGVSFSGHRLELLAAYEEVIREESAADWALYTYEDGSDDLKLAASGEGGLQELSGHFENQKVMYGFCSVKDSQAALPKYVLINWVGEDVPDARKCACASHVAKVAEFFQGVDVIVNASSVEDIDAGAIGQRLSNGLARLSSPVLHRLRLREDENAEPVGTTYQKTDAAVEMKRINREQFWEQAKKEEELRKEEERKKALDARLRFEQERMEQERQEQEERERRYREREQQIEEHRRKQQSLEAEEAKRRLKEQSIFGDQRDEEEESQMKKSESEVEEAAAIIAQRPDNPREFFRQQERVASASGGSCDAPAPAPFNHRPGRPYCPFIKASDSGPSSSSSSSSSPPRTPFPYITCHRTPNLSSSLPCSHLDSHRRMAPTPIPTRSPSDSSTASTPIAEQIERALDEVTSSQPPPPPPPPPPTQEAQETTPSLDEELSKEAKVTAAPEVWAGCAAEPPQAQEPPLLQSSPLEDSMCTESPEQAALAAPAEPAASVTSVADVHAADTIETTTATTDTTIANNVTPAAASLIDLWPGNGEEASTLQAEPRVPTPPSGAEASLAEVPLLNEAAQEPLPPVGEGCANLLNFDELPEPPATFCDPEEEVGETLAASQVLTMPSALEEVDQVLEQELEPEPHLLTNGETTQKEGTQASEGYFSQSQEEEFAQSEEPCAKVPPPVFYNKPPEIDITCWDADPVPEEEEGFEGGD

B4: SynGAP (protein, UniProt F6SEU4 1-1340)
chain: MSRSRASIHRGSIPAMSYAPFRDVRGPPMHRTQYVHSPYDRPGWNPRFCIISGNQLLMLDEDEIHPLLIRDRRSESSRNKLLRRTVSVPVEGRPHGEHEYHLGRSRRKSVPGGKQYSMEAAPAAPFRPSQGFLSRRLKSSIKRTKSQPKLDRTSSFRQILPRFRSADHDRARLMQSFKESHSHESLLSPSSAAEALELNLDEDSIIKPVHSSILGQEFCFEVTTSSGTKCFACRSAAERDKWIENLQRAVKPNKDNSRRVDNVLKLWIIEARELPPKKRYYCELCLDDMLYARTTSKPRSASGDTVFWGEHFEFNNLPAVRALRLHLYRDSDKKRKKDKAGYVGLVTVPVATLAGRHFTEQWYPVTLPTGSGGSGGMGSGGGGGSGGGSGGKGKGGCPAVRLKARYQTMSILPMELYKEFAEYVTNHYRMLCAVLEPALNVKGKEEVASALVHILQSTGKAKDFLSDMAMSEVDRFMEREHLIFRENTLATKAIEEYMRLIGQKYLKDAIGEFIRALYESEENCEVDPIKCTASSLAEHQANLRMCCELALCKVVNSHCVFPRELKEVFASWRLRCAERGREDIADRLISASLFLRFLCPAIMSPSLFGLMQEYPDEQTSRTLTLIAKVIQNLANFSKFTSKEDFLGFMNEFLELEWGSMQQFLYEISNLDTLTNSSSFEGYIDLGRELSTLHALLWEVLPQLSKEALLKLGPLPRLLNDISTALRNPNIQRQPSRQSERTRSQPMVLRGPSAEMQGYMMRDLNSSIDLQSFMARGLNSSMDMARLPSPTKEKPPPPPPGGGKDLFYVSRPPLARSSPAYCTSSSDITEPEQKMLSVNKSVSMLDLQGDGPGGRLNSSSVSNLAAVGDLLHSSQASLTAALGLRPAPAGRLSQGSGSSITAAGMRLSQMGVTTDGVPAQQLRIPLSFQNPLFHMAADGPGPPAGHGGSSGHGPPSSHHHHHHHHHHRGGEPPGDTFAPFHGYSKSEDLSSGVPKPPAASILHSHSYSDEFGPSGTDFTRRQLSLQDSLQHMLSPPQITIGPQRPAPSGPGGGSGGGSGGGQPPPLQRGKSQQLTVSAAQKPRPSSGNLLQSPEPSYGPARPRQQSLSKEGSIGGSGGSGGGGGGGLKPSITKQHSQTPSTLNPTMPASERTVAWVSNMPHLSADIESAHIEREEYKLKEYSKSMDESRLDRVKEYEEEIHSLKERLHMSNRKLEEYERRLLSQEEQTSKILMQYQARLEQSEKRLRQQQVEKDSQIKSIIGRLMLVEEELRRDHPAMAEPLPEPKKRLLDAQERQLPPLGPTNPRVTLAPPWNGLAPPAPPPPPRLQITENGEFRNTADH
binding [2]: no binding
